Results as given in patent publication US20260092061A1, “COMPOUNDS FOR TARGETED PROTEIN DEGRADATION” (Amphista Therapeutics Limited, priority 2022, published 2026).
The structures given here were assigned with low confidence; some may be wrong.

By UniProt entry, the sequences of proteins in these tests, tags left out.
UniProt Q9H8M2, whole entry: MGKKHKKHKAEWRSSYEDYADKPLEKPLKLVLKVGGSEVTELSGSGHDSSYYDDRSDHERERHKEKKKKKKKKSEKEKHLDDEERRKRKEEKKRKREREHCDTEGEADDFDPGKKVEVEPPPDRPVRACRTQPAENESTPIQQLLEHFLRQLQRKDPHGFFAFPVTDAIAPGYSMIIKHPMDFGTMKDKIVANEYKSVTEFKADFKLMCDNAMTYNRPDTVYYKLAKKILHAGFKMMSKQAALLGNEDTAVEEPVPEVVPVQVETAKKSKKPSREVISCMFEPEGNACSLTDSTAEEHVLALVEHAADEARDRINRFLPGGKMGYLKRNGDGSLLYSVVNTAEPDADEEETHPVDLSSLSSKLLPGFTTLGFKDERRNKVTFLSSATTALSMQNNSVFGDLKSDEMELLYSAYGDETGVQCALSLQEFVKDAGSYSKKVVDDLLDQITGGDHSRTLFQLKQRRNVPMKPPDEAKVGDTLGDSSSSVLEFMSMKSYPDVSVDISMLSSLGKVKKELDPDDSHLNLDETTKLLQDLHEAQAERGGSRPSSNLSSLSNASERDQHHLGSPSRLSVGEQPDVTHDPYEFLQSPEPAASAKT

Experiments:
[1] = target: T1, BRD9 (Homo sapiens, UniProt Q9H8M2); assay: Degradation of BRD9 (IF), immunofluorescence in MV4-11 cells, 24 hours (Assay Protocol 2)
Description: Assay Protocol 2—Degradation of BRD9 (IF)
A suspension of MV4-11 cells (ATCC CRL-9591) was prepared in phenol red-free assay media (IMDM Thermo Scientific 21056023+10% FBS ATCC 302025) and cells were seeded at 20,000 cells per well (45 μL) in sterile black poly-d-lysine coated 384 well plates (Greiner 781948). Compounds were prepared at 1000× final concentration in DMSO, diluted 1:100 in assay media, and 5 μL compound was added to each well of the cell plate. Cells were incubated for 24 hours at 37° C. with 5% CO2. All the following incubations for immunofluorescence staining were at room temperature. 15 μL of 16% PFA was added to each well (3.7% final concentration) and the cells were fixed for 15 min then washed twice with DPBS. Cells were permeabilised with 0.1% Triton X-100 for 10 min, Triton X-100 was removed, then blocked with 1% BSA in DPBS for 1 hour. Cells were stained with 25 μL anti-BRD9 E4Q3F antibody (CST 48306) diluted 1:25600 in 1% BSA in DPBS for 2-3 hours. […] Images were processed using Harmony High-Content Imaging and Analysis Software (Perkin Elmer) and the mean contrast ratio of Alexa Fluor™ 647 in central nuclei was used to quantify BRD9 protein levels. Data was further analysed using Dotmatics software and % BRD9 remaining was calculated by normalisation to average data from high and low control wells (cells treated with DMSO or 100 nM CFT-8634 respectively).

[2] = target: T1, BRD9; assay: BRD9 degradation, HiBiT-BRD9 KI HEK293 (LgBiT) cells, NanoGlo Lytic Endpoint assay (Assay Protocol 1)
Description: HiBiT-BRD9 KI HEK293 (LgBiT) Cells (Promega CS3023412) were seeded at 8000 cells per well (38 μL) in sterile white bottom 384 well plates (Invitrogen 164610 or Greiner 781080) and incubated overnight at 37° C. with 5% CO2. The next day, compounds were prepared at 1000× final concentration in DMSO and diluted 1:100 in media (DMEM PAN Biotech P04-03550+10% FBS ATCC 302025). 4 μL compound was added to each well of the cell plate and incubated for 6 h at 37° C. with 5% CO2 BRD9 expression was quantified using the NanoGlo Lytic Endpoint assay (Promega N3050). The lytic buffer was equilibrated to room temperature for 10-15 min before lytic reagent was prepared by adding substrate (1:50) and LgBit protein (1:100) in lytic buffer. 40 μL lytic reagent mix was added to each well of the cel plate and plates were centrifuged briefly at ˜50g. Plates were incubated with shaking (350 RPM) for 12-24 min before reading using the LUM plus module of a BMG Pherastar FSX. Data was analysed using Dotmatics software and % BRD9 remaining was calculated by normalisation to average data from high and low control wells (DMSO treated cels and no cells respectively).

COc1cc(-c2cn(C)c(=O)c(C)c2C)cc(OC)c1CN1CCN(Cc2cccc(C3CCCN3C(=O)C(C#N)=CC(C)C)c2)CC1 (stereo not shown)
DC50 [1]: < 1.25 nM | Dmax [1]: + (+ = >40% and <70%) | DC50 [2]: 10 to 25 nM | Dmax [2]: +++ (+++ = ≥75%)
